According to patent publication US20200024357A1 (published 2020):
These are yes or no findings as the source states them, for the method shown. Some results given as binding are weak or reduced against the parent protein; the word gives no strength.

B1: mAb1 H0L0 (antibody, human IgG1, V domains shown)
VH: QVQLVQSGAEVKKPGASVKVSCKASGYTFTDYNMHWVRQAPGQRLEWMGYIVPLNGGSTFNQKFKGRVTITRDTSASTAYMELSSLRSEDTAVYYCARGGTRFAYWGQGTLVTVSS
VL: DIVMTQSPDSLAVSLGERATINCRASESVDNFGVSFMYWYQQKPGQPPKLLIYGASNQGSGVPDRFSGSGSGTDFTLTISSLQAEDVAVYYCQQTKEVPYTFGGGTKVEIK
B2: mAb2 H0L1 (antibody, human IgG1, V domains shown)
VH: QVQLVQSGAEVKKPGASVKVSCKASGYTFTDYNMHWVRQAPGQRLEWMGYIVPLNGGSTFNQKFKGRVTITRDTSASTAYMELSSLRSEDTAVYYCARGGTRFAYWGQGTLVTVSS
VL: DIVMTQSPDSLAVSLGERATINCRASESVDNFGVSFMYWFQQKPGQPPKLLIYGASNQGSGVPDRFSGSGSGTDFTLTISSLQAEDVAVYYCQQTKEVPYTFGGGTKVEIK
B3: mAb3 H0L1* (antibody, human IgG1, V domains shown)
VH: QVQLVQSGAEVKKPGASVKVSCKASGYTFTDYNMHWVRQAPGQRLEWMGYIVPLNGGSTFNQKFKGRVTITRDTSASTAYMELSSLRSEDTAVYYCARGGTRFAYWGQGTLVTVSS
VL: DIVMTQSPDSLAVSLGERATINCKASESVDNFGVSFMYWFQQKPGQPPKLLIYGASNQGSGVPDRFSGSGSGTDFTLTISSLQAEDVAVYYCQQTKEVPYTFGGGTKVEIK
B4: mAb4 H1L0 (antibody, human IgG1, V domains shown)
VH: QVQLVQSGAEVKKPGASVKVSCKASGYTFTDYNMHWVRQAPGQRLEWMGYIVPLNGGSTFNQKFKGRVTITVDTSASTAYMELSSLRSEDTAVYYCARGGTRFAYWGQGTLVTVS
VL: DIVMTQSPDSLAVSLGERATINCRASESVDNFGVSFMYWYQQKPGQPPKLLIYGASNQGSGVPDRFSGSGSGTDFTLTISSLQAEDVAVYYCQQTKEVPYTFGGGTKVEIK
B5: mAb5 H1L1 (antibody, human IgG1, V domains shown)
VH: QVQLVQSGAEVKKPGASVKVSCKASGYTFTDYNMHWVRQAPGQRLEWMGYIVPLNGGSTFNQKFKGRVTITVDTSASTAYMELSSLRSEDTAVYYCARGGTRFAYWGQGTLVTVS
VL: DIVMTQSPDSLAVSLGERATINCRASESVDNFGVSFMYWFQQKPGQPPKLLIYGASNQGSGVPDRFSGSGSGTDFTLTISSLQAEDVAVYYCQQTKEVPYTFGGGTKVEIK
B6: mAb6 H1L1* (antibody, human IgG1, V domains shown)
VH: QVQLVQSGAEVKKPGASVKVSCKASGYTFTDYNMHWVRQAPGQRLEWMGYIVPLNGGSTFNQKFKGRVTITVDTSASTAYMELSSLRSEDTAVYYCARGGTRFAYWGQGTLVTVS
VL: DIVMTQSPDSLAVSLGERATINCKASESVDNFGVSFMYWFQQKPGQPPKLLIYGASNQGSGVPDRFSGSGSGTDFTLTISSLQAEDVAVYYCQQTKEVPYTFGGGTKVEIK
B7: mAb7 H2L0 (antibody, human IgG1, V domains shown)
VH: QVQLVQSGAEVKKPGASVKVSCKASGYTFTDYNMHWVRQAPGQRLEWMGYIVPLNGGSTFNQKFKGRATITVDTSASTAYMELSSLRSEDTAVYYCARGGTRFAYWGQGTLVTVSS
VL: DIVMTQSPDSLAVSLGERATINCRASESVDNFGVSFMYWYQQKPGQPPKLLIYGASNQGSGVPDRFSGSGSGTDFTLTISSLQAEDVAVYYCQQTKEVPYTFGGGTKVEIK
B8: mAb8 H2L1 (antibody, human IgG1, V domains shown)
VH: QVQLVQSGAEVKKPGASVKVSCKASGYTFTDYNMHWVRQAPGQRLEWMGYIVPLNGGSTFNQKFKGRATITVDTSASTAYMELSSLRSEDTAVYYCARGGTRFAYWGQGTLVTVSS
VL: DIVMTQSPDSLAVSLGERATINCRASESVDNFGVSFMYWFQQKPGQPPKLLIYGASNQGSGVPDRFSGSGSGTDFTLTISSLQAEDVAVYYCQQTKEVPYTFGGGTKVEIK
B9: mAb9 H2L1* (antibody, human IgG1, V domains shown)
VH: QVQLVQSGAEVKKPGASVKVSCKASGYTFTDYNMHWVRQAPGQRLEWMGYIVPLNGGSTFNQKFKGRATITVDTSASTAYMELSSLRSEDTAVYYCARGGTRFAYWGQGTLVTVSS
VL: DIVMTQSPDSLAVSLGERATINCKASESVDNFGVSFMYWFQQKPGQPPKLLIYGASNQGSGVPDRFSGSGSGTDFTLTISSLQAEDVAVYYCQQTKEVPYTFGGGTKVEIK
B10: mAb10 H2*L0 (antibody, human IgG1, V domains shown)
VH: QVQLVQSGAEVKKPGASVKVSCKASGYTFTDYNMHWVRQAPGQRLEWMGYIVPLNGGSTFSQKFKGRATITVDTSASTAYMELSSLRSEDTAVYYCARGGTRFAYWGQGTLVTVSS
VL: DIVMTQSPDSLAVSLGERATINCRASESVDNFGVSFMYWYQQKPGQPPKLLIYGASNQGSGVPDRFSGSGSGTDFTLTISSLQAEDVAVYYCQQTKEVPYTFGGGTKVEIK
B11: mAb11 H2*L1 (antibody, human IgG1, V domains shown)
VH: QVQLVQSGAEVKKPGASVKVSCKASGYTFTDYNMHWVRQAPGQRLEWMGYIVPLNGGSTFSQKFKGRATITVDTSASTAYMELSSLRSEDTAVYYCARGGTRFAYWGQGTLVTVSS
VL: DIVMTQSPDSLAVSLGERATINCRASESVDNFGVSFMYWFQQKPGQPPKLLIYGASNQGSGVPDRFSGSGSGTDFTLTISSLQAEDVAVYYCQQTKEVPYTFGGGTKVEIK
B12: mAb12 H2*L1* (antibody, human IgG1, V domains shown)
VH: QVQLVQSGAEVKKPGASVKVSCKASGYTFTDYNMHWVRQAPGQRLEWMGYIVPLNGGSTFSQKFKGRATITVDTSASTAYMELSSLRSEDTAVYYCARGGTRFAYWGQGTLVTVSS
VL: DIVMTQSPDSLAVSLGERATINCKASESVDNFGVSFMYWFQQKPGQPPKLLIYGASNQGSGVPDRFSGSGSGTDFTLTISSLQAEDVAVYYCQQTKEVPYTFGGGTKVEIK
B13: mAb13 H3L0 (antibody, human IgG1, V domains shown)
VH: QVQLVQSGAEVKKPGASVKVSCKASGYTFTDYNMHWVRQAPGQRLEWIGYIVPLNGGSTFNQKFKGRATITVDTSASTAYMELSSLRSEDTAVYYCARGGTRFAYWGQGTLVTVSS
VL: DIVMTQSPDSLAVSLGERATINCRASESVDNFGVSFMYWYQQKPGQPPKLLIYGASNQGSGVPDRFSGSGSGTDFTLTISSLQAEDVAVYYCQQTKEVPYTFGGGTKVEIK
B14: mAb14 H3L1 (antibody, human IgG1, V domains shown)
VH: QVQLVQSGAEVKKPGASVKVSCKASGYTFTDYNMHWVRQAPGQRLEWIGYIVPLNGGSTFNQKFKGRATITVDTSASTAYMELSSLRSEDTAVYYCARGGTRFAYWGQGTLVTVSS
VL: DIVMTQSPDSLAVSLGERATINCRASESVDNFGVSFMYWFQQKPGQPPKLLIYGASNQGSGVPDRFSGSGSGTDFTLTISSLQAEDVAVYYCQQTKEVPYTFGGGTKVEIK
B15: mAb15 H3L1* (antibody, human IgG1, V domains shown)
VH: QVQLVQSGAEVKKPGASVKVSCKASGYTFTDYNMHWVRQAPGQRLEWIGYIVPLNGGSTFNQKFKGRATITVDTSASTAYMELSSLRSEDTAVYYCARGGTRFAYWGQGTLVTVSS
VL: DIVMTQSPDSLAVSLGERATINCKASESVDNFGVSFMYWFQQKPGQPPKLLIYGASNQGSGVPDRFSGSGSGTDFTLTISSLQAEDVAVYYCQQTKEVPYTFGGGTKVEIK
B16: mAb16 H3*L0 (antibody, human IgG1, V domains shown)
VH: QVQLVQSGAEVKKPGASVKVSCKASGYTFTDYNMHWVRQAPGQRLEWIGYIVPLNGGSTFSQKFQGRATITVDTSASTAYMELSSLRSEDTAVYYCARGGTRFAYWGQGTLVTVSS
VL: DIVMTQSPDSLAVSLGERATINCRASESVDNFGVSFMYWYQQKPGQPPKLLIYGASNQGSGVPDRFSGSGSGTDFTLTISSLQAEDVAVYYCQQTKEVPYTFGGGTKVEIK
B17: mAb17 H3*L1 (antibody, human IgG1, V domains shown)
VH: QVQLVQSGAEVKKPGASVKVSCKASGYTFTDYNMHWVRQAPGQRLEWIGYIVPLNGGSTFSQKFQGRATITVDTSASTAYMELSSLRSEDTAVYYCARGGTRFAYWGQGTLVTVSS
VL: DIVMTQSPDSLAVSLGERATINCRASESVDNFGVSFMYWFQQKPGQPPKLLIYGASNQGSGVPDRFSGSGSGTDFTLTISSLQAEDVAVYYCQQTKEVPYTFGGGTKVEIK
B18: mAb18 H3*L1* (antibody, human IgG1, V domains shown)
VH: QVQLVQSGAEVKKPGASVKVSCKASGYTFTDYNMHWVRQAPGQRLEWIGYIVPLNGGSTFSQKFQGRATITVDTSASTAYMELSSLRSEDTAVYYCARGGTRFAYWGQGTLVTVSS
VL: DIVMTQSPDSLAVSLGERATINCKASESVDNFGVSFMYWFQQKPGQPPKLLIYGASNQGSGVPDRFSGSGSGTDFTLTISSLQAEDVAVYYCQQTKEVPYTFGGGTKVEIK
B19: mAb19 H4L0 (antibody, human IgG1, V domains shown)
VH: QVQLVQSGAEVKKPGASVKVSCKASGYTFTDYNMHWVRQAPGQRLEWIGYIVPLNGGSTFNQKFKGRATITVDTSARTAYMELSSLRSEDTAVYYCARGGTRFAYWGQGTLVTVSS
VL: DIVMTQSPDSLAVSLGERATINCRASESVDNFGVSFMYWYQQKPGQPPKLLIYGASNQGSGVPDRFSGSGSGTDFTLTISSLQAEDVAVYYCQQTKEVPYTFGGGTKVEIK
B20: mAb20 H4L1 (antibody, human IgG1, kappa, V domains shown)
VH: QVQLVQSGAEVKKPGASVKVSCKASGYTFTDYNMHWVRQAPGQRLEWIGYIVPLNGGSTFNQKFKGRATITVDTSARTAYMELSSLRSEDTAVYYCARGGTRFAYWGQGTLVTVSS
VL: DIVMTQSPDSLAVSLGERATINCRASESVDNFGVSFMYWFQQKPGQPPKLLIYGASNQGSGVPDRFSGSGSGTDFTLTISSLQAEDVAVYYCQQTKEVPYTFGGGTKVEIKR
notes: The full heavy chain carries L234A/L235E/G237A/A330S/P331S
B21: mAb21 H4L1* (antibody, human IgG1, kappa, V domains shown)
VH: QVQLVQSGAEVKKPGASVKVSCKASGYTFTDYNMHWVRQAPGQRLEWIGYIVPLNGGSTFNQKFKGRATITVDTSARTAYMELSSLRSEDTAVYYCARGGTRFAYWGQGTLVTVSS
VL: DIVMTQSPDSLAVSLGERATINCKASESVDNFGVSFMYWFQQKPGQPPKLLIYGASNQGSGVPDRFSGSGSGTDFTLTISSLQAEDVAVYYCQQTKEVPYTFGGGTKVEIKR

Target: cynomolgus (Macaca fascicularis) CD39 expressed on CHO cells (cynomolgus (Macaca fascicularis))
Assay: flow cytometry on CHO cells expressing cynomolgus CD39

Row | Binder | binding
1 | B1 | binds
2 | B2 | binds
3 | B3 | binds
4 | B4 | binds
5 | B5 | binds
6 | B6 | binds
7 | B7 | binds
8 | B8 | binds
9 | B9 | binds
10 | B10 | binds
11 | B11 | binds
12 | B12 | binds
13 | B13 | binds
14 | B14 | binds
15 | B15 | binds
16 | B16 | binds
17 | B17 | binds
18 | B18 | binds
19 | B19 | binds
20 | B20 | binds
21 | B21 | binds
